Source: PubChem BioAssay AID1487 (National Center for Advancing Translational Sciences (NCATS), 2009)
Values joined by “and” are separate entries in the source; they are usually repeats but may differ in a detail not shown here. Equal entries are not always repeated. The list shows a part of the results. These are further read-outs of the screen, such as a control signal, another cell line or another target. No call is given for them. The list favours compounds with an active or inconclusive main result. Potencies come from curve fits of mixed quality, noted in brackets.

Test: qHTS Assay for Modulators of Lamin A Splicing
Details: HeLa LMNA splicing GFP/RFP minigene ratio, 48 h
Summary of the method: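 S3 HeLa stable clones carrying a lamin A-EGFP splicing minigene plus DsRed2 were seeded at 600 cells/well in Opti-MEM with 2% FBS, pin-dosed and incubated 48 h at 37°C. Acumen cytometry (488 nm) gave the GFP/RFP total-intensity ratio.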

[1] = measured here: RFP viability control channel
[2] = measured here: GFP splicing reporter channel

| SMILES | AC50 [1] | AC50 [2] |
| --- | --- | --- |
| O=C(Oc1ccccc1/C=C\C(=O)c1cc2ccccc2o1)c1cccc(F)c1 | 17.8 µM [rising, partial curve, poor fit] |  |
| N#C/C(=C/c1ccc(Br)o1)C(N)=O | 15.8 µM [rising, partial curve, poor fit] |  |
| Cc1onc(-c2ccccc2)c1-c1ccc(S(N)(=O)=O)cc1 | 35.5 µM [falling, single point] | 31.6 µM [falling, single point] |
| C/C(=N\NC(=O)C1COc2ccccc2O1)c1ccccn1 (stereo not given) | 25.1 µM [rising, partial curve] |  |
| COc1cc(CN2CCN(CCc3ccccc3)C(CCO)C2)cc(OC)c1 (stereo not given) | 0.1 µM [falling, full curve, poor fit] |  |
| O=C(c1ccco1)N1CCN(c2ccc([N+](=O)[O-])c(N3CCOCC3)c2)CC1 | 22.4 µM [rising, partial curve] |  |
| C=CCn1c(C)cc(C(=O)CSc2nc3ccccc3o2)c1C | 14.1 µM [rising, partial curve] |  |
| Cc1cc(C(=O)OCC(=O)Nc2cc(C(F)(F)F)ccc2N2CCOCC2)c(C)o1 | 28.2 µM [rising, single point] | 35.5 µM [rising, single point] |
| O=S(=O)(c1ccccc1)c1nc(Nc2cccc(O)c2)sc1Cl | 12.6 µM [rising, partial curve] | 0.562 µM [rising, full curve, poor fit] |
| CN(c1ccccc1)S(=O)(=O)c1cccc(NC(=O)CN2CCc3ccccc3C2)c1 |  | 7.08 µM [falling, partial curve, poor fit] |
| Cc1cccc(N2CCN(C(=O)n3ccnc3)CC2)c1C | 35.5 µM [rising, single point] |  |
| CNC(=O)C1CCC(Cn2c(=O)[nH]c3ccsc3c2=O)CC1 (stereo not given) | 1.58 µM [falling, partial curve, poor fit] | 0.00891 µM [falling, full curve, poor fit] |
| CN(Cc1ccccc1)S(=O)(=O)c1ccc(NC(=S)NC(=O)C2CCCCC2)cc1 | 25.1 µM [rising, single point] |  |
| CN(Cc1ccccc1)c1nc(N)nc(Cl)c1C=O |  | 0.0316 µM [falling, full curve, poor fit] |
| CC(C)(C)c1nnc(N/N=C/c2ccc(Br)cc2)n(N)c1=O | 15.8 µM [rising, single point] |  |
| Cc1nc2ccc(S(=O)(=O)Nc3cccc(-c4nc5cccnc5s4)c3C)cc2s1 | 2.82 µM [rising, full curve] |  |
| Cc1nnc(SCC(=O)N/N=C/c2ccc(-c3ccc(C)c(Cl)c3)o2)s1 | 0.0794 µM [rising, full curve, poor fit] |  |
| N#Cc1c(NC(=O)CSc2nc(N)cc(=O)[nH]2)sc2c1CCCCCC2 | 2.51 µM [rising, single point] |  |
| N#C/C(=C\c1ccccn1)c1nc2ccccc2s1 | 3.55 µM [falling, partial curve] |  |

| SMILES | AC50 [1] | AC50 [2] |
| --- | --- | --- |
| O=C(Nc1cccnc1)c1noc2c1CCCC2 | 0.02 µM [falling, full curve, poor fit] |  |
| N#CC(C#N)=C1C=CC=CN1/C(=C\c1ccco1)C(=O)c1ccccc1 | 3.16 µM [falling, single point] | 3.98 µM [falling, single point] |
| CN1CCN(c2nc(-c3cc4ccccc4o3)cs2)CC1 | 0.355 µM [rising, full curve, poor fit] | 0.355 µM [rising, full curve, poor fit] |
| Cc1ccc(NS(=O)(=O)c2ccc3c(c2)NC(=O)CCS3)cc1C |  | 15.8 µM [falling, single point] |
| Cc1cccc(OC(=O)c2cc(-c3ccc4c(c3)OCCO4)on2)c1 | 0.0178 µM [falling, full curve] | 0.0355 µM [falling, full curve, poor fit] |
| Cc1ccsc1/C=N/n1c(COc2ccccc2)n[nH]c1=S | 7.08 µM [rising, partial curve] |  |
| Cc1c(C(=O)N2CCN(Cc3ccc4c(c3)OCO4)CC2)cccc1[N+](=O)[O-] |  | 31.6 µM [rising, single point] |
| CCN(CC)S(=O)(=O)c1ccc(C(=O)Nc2nc3c(Cl)cc(Cl)cc3s2)cc1 | 4.47 µM [rising, partial curve] | 3.16 µM [rising, partial curve] |
| O=C1CC(N2CCN(c3ccc(O)cc3)CC2)C(=O)N1Cc1cccs1 (stereo not given) | 14.1 µM [rising, single point] |  |
| Cc1cccc2cc(-c3ccccc3)c(-c3ccccc3)c[n+]12 | 7.94 µM [rising, partial curve] | 14.1 µM [rising, partial curve] |
| CCOc1ccc(NCc2ccccc2OCc2cccc(F)c2)cc1 | 12.6 µM [rising, single point] |  |
| Oc1c(CN2CCOCC2)ccc2ccccc12 | 4.47 µM [falling, partial curve, poor fit] | 35.5 µM [falling, single point] |
| Cc1ccc(CNC(=O)CSc2nc(=O)[nH]c3c2CCCC3)cc1 | 0.708 µM [falling, full curve, poor fit] |  |
| CCCC1C(C(=O)OCC)=C(C)NC(C)=C1C(=O)OCC | 17.8 µM [rising, single point] | 7.08 µM [rising, partial curve, poor fit] |
| N#Cc1nc(-c2ccc(COc3ccccc3)o2)oc1NCc1ccccc1 | 3.98 µM [falling, full curve, poor fit] |  |
| COc1ccc(-c2oc3cc(O[C@@H]4OC(CO)C(O)C(O)C4O)c(OC)c(O)c3c(=O)c2OC)cc1O (stereo not given in full) | 7.08 µM [falling, single point] | 35.5 µM [falling, single point] |
| O=C(CN1CCN(c2ccc(O)cc2)CC1)Nc1ccc(SC(F)F)cc1 | 7.94 µM [rising, partial curve, poor fit] |  |
| Cc1nc2ccccc2n1CCc1nc2c3ccccc3nc(SCC(=O)Nc3ccc(Br)cc3F)n2n1 | 35.5 µM [falling, single point] |  |
| CC(=O)Nc1ccc(C2=NN(Cc3nnc(-c4ccccc4)o3)C(=O)SC2)cc1 | 15.8 µM [rising, single point] |  |

Reprinted at random: 4 entries already listed

| SMILES | AC50 [1] | AC50 [2] |
| --- | --- | --- |
| Cc1nc2ccccc2n1CCc1nc2c3ccccc3nc(SCC(=O)Nc3ccc(Br)cc3F)n2n1 | 35.5 µM [falling, single point] |  |
| O=C(CN1CCN(c2ccc(O)cc2)CC1)Nc1ccc(SC(F)F)cc1 | 7.94 µM [rising, partial curve, poor fit] |  |
| Cc1cccc(OC(=O)c2cc(-c3ccc4c(c3)OCCO4)on2)c1 | 0.0178 µM [falling, full curve] | 0.0355 µM [falling, full curve, poor fit] |
| CCCC1C(C(=O)OCC)=C(C)NC(C)=C1C(=O)OCC | 17.8 µM [rising, single point] | 7.08 µM [rising, partial curve, poor fit] |

(further entries)

| SMILES | AC50 [1] | AC50 [2] |
| --- | --- | --- |
| O=C(Nc1ccccc1)c1cc([N+](=O)[O-])ccc1Cl | 11.2 µM [rising, partial curve] | 1.41 µM [rising, full curve, poor fit] |
| Cc1cccc(-c2nsc(SCC(=O)c3ccc(Cl)cc3)n2)c1 | 35.5 µM [rising, single point] |  |
| CC(Oc1ccc(Cl)cc1)C(=O)NNC(=S)NC(=O)c1ccco1 (stereo not given) | 1 µM [rising, full curve, poor fit] |  |
| COc1ccccc1NC(=O)c1c(NCc2ccc(C)o2)sc2c1CCC(C)C2 (stereo not given) |  | 25.1 µM [falling, partial curve, poor fit] |
| CCOC(=O)c1c(C)n(CC(O)c2ccccc2)c2ccc(O)cc12 (stereo not given) | 10 µM [rising, partial curve] |  |
| Cc1onc(-c2ccccc2)c1C(=O)N/N=C/c1cc2c(cc1Cl)OCO2 | 35.5 µM [rising, single point] | 15.8 µM [rising, partial curve, poor fit] |
| N#CCC(=O)N/N=C/c1ccc(SCC(=O)Nc2ccccc2)o1 | 20 µM [rising, partial curve, poor fit] | 0.00398 µM [rising, full curve, poor fit] |
| COc1ccc(N2CCN(C3CC(=O)N(C)C3=O)CC2)cc1 (stereo not given) | 35.5 µM [rising, single point] | 35.5 µM [rising, single point] |
| CCCC(=O)C1=C(O)C(C(=O)OC)C(C)(C)CC1=Nc1cccc2ccccc12 (stereo not given) | 35.5 µM [rising, single point] |  |
| CC(C)COc1ccc(S(=O)(=O)n2cc(F)c(=O)[nH]c2=O)cc1 |  | 1.78 µM [falling, partial curve, poor fit] |
| O=C(NNc1ccc(Cl)cc1)c1cccs1 |  | 0.01 µM [rising, full curve, poor fit] |
| CCC(Sc1nnnn1-c1ccccc1)C(=O)Nc1nc2ccccc2s1 (stereo not given) | 35.5 µM [rising, single point] |  |
| CSc1nsc(/C=C/Nc2ccc(F)cc2F)c1C#N |  | 39.8 µM [falling, partial curve, poor fit] |
| COc1ccc(S(=O)(=O)c2c(Nc3ccc(F)cc3)sc(C(=O)c3ccc4c(c3)OCO4)c2N)cc1 | 8.91 µM [rising, partial curve, poor fit] | 10 µM [rising, partial curve, poor fit] |
| CN(NS(=O)(=O)c1ccc(F)cc1)c1ncc(C(F)(F)F)cc1Cl |  | 0.0251 µM [rising, full curve] |
| Cn1cccc1/C=C(/C#N)C(N)=S | 0.251 µM [rising, full curve] | 0.251 µM [rising, full curve, poor fit] |
| C[N+]1(CCCCC[N+]2(C)CCCC2)CCCC1 |  | 14.1 µM [falling, single point] and 6.31 µM [falling, partial curve, poor fit] |
| CC(C)C(=O)NC(=S)Nc1ccccn1 | 7.94 µM [rising, partial curve] |  |
| O=C(Nc1ccc(F)cc1F)N1CCCN(c2ccc([N+](=O)[O-])cn2)CC1 | 3.55 µM [falling, partial curve, poor fit] |  |
